{"source": "paper PMC10354432", "about": "“Preparation of caffeic acid grafted chitosan self-assembled micelles to enhance oral bioavailability and antibacterial activity of quercetin” (Frontiers in Veterinary Science, 2023)", "origin": "cited, not measured here", "settings": "cited from earlier work", "note": "Read-outs that look alike come from different tables or passages of the source."}
{"smiles": "O=c1c(O)c(-c2ccc(O)c(O)c2)oc2cc(O)cc(O)c12", "note": "[QR, Quercetin]", "values": [{"measurement": "solubility in water", "setting": "ref 11", "result": "0.17 to 7.70", "unit": "µg/mL"}, {"measurement": "solubility in water", "setting": "ref 12, 13", "result": 7.7, "unit": "µg/mL"}]}
